Values from PubChem BioAssay AID504793 (Drosophila RNAi Screening Center, 2011).
The deposit covers about 23,000 reagents; this is an unselected part of those that have a named target and a result. Of all reagents, 62 (0.27%) got an active call. 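Calls come from follow-up tests whose scores are not deposited, so confirmed genes may have low counts here; counts are not normalised per plate.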 The raw values are shown without normalisation. A number with no mark means an inactive call.

- Screen: 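Knock-downs allowing continued mitosis even though DNA is damaged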 (primary screen)
- Cell system: Drosophila S2R+ cells
- Reagents: long dsRNA against Drosophila genes, about 0.25 µg dsRNA per well
- Duration: 4 days of dsRNA, then 4 hours of drug before read-out
- Challenge: doxorubicin 0.5 µM for 4 hours to cause double-strand breaks, in cells also given a low, harmless dose of dsRNA against nbs to sensitise the assay
- Detection: 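Mitotic index as the number of phospho-histone H3-positive cells in each well following doxorubicin, given as raw counts without normalisation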
- Direction: mitotic cells: higher = more cells in mitosis, weaker G2 arrest
- Hit rule: 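a call needs confirmation in secondary tests, with other dsRNAs and a check of mitotic timing without damage, not just a high primary count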
- Calls: active = confirmed in follow-up tests; inactive = not confirmed

target gene | amplicon | mitotic cells, replicate 1 | mitotic cells, replicate 2
sra (GeneID 47384) | DRSC17015 | 8 | –
CG7341 (GeneID 40004) | DRSC10818 | 5 | –
CG34107 (GeneID 4379852) | DRSC14554 | 3 | –
Obp50e (GeneID 36600) | DRSC06434 | 5 | –
CG31266 (GeneID 42071) | DRSC15747 | 1 | –
CG31556 (retired record) (GeneID 318800) | DRSC12122 | 7 | –
CG31556 (retired record) (GeneID 318800) | DRSC22177 | 3 | –
CG31556 (retired record) (GeneID 318800) | DRSC23922 | 4 | –
CG9471 (GeneID 41197) | DRSC16499 | 5 | –
CG9471 (GeneID 41197) | DRSC26334 | 8 | –
CG17944 (GeneID 40885) | DRSC12572 | 1 | –
spartin (GeneID 40582) | DRSC12187 | 6 | –
spartin (GeneID 40582) | DRSC27182 | 5 | –
CG12910 (GeneID 36082) | DRSC06225 | 3 | –
CG14966 (GeneID 38390) | DRSC08425 | 4 | –
Dnaaf6 (GeneID 39598) | DRSC10473 | 6 | –
CG4896 (GeneID 33305) | DRSC00671 | 1 | –
CG4896 (GeneID 33305) | DRSC24570 | 4 | –
CG33463 (GeneID 2768844) | DRSC22915 | 12 | –
CG33463 (GeneID 2768844) | DRSC29923 | 12 | –
CG16710 (GeneID 42790) | DRSC15136 | 18 | –
tap (GeneID 39935) | DRSC11402 | 7 | –
ND-B15 (GeneID 36640) | DRSC06199 | 8 | –
CG11779 (GeneID 42298) | DRSC14384 | 8 | –
mRpL4 (GeneID 49425) | DRSC03562 | 8 | –
fipi (GeneID 33676) | DRSC00465 | 5 | –
fipi (GeneID 33676) | DRSC25365 | 8 | –
RpS14b (GeneID 47219) | DRSC18711 | 10 | –
Ir7f (GeneID 7354418) | DRSC18012 | 7 | –
nw (GeneID 3772015) | DRSC06749 | 8 | –
nw (GeneID 3772015) | DRSC06896 | 8 | –
nw (GeneID 3772015) | DRSC25619 | 4 | –
CG13252 (GeneID 40289) | DRSC11700 | 6 | –
CG13252 (GeneID 40289) | DRSC27577 | 11 | –
Ac78C (GeneID 40333) | DRSC11467 | 3 | –
Ac78C (GeneID 40333) | DRSC11602 | 9 | –
Ac78C (GeneID 40333) | DRSC11619 | 5 | –
Ilk (GeneID 53573) | DRSC11868 | 10 | –
CG13685 (GeneID 38869) | DRSC10043 | 3 | –
CG13685 (GeneID 38869) | DRSC30064 | 11 | –
tomboy20 (GeneID 41285) | DRSC14913 | 4 | –
CG11626 (GeneID 42323) | DRSC14336 | 12 | –
l(3)mbn (GeneID 38701) | DRSC08793 | 3 | –
Ak3 (GeneID 41318) | DRSC16075 | 5 | –
Ak3 (GeneID 41318) | DRSC27968 | 4 | –
Ih (GeneID 36589) | DRSC07445 | 10 | –
Ih (GeneID 36589) | DRSC24809 | 8 | –
Gos28 (GeneID 248102) | DRSC16292 | 6 | –
Gos28 (GeneID 248102) | DRSC22859 | 11 | –
CG11350 (GeneID 38554) | DRSC08181 | 2 | 11
CG11350 (GeneID 38554) | DRSC25083 | 4 | –
ssp2 (GeneID 39540) | DRSC11052 | 7 | –
ssp2 (GeneID 39540) | DRSC23906 | 7 | –
IFT57 (GeneID 33579) | DRSC00720 | 9 | –
Tmep (GeneID 38185) | DRSC08215 | 4 | –
Tmep (GeneID 38185) | DRSC26652 | 3 | –
nSyb (GeneID 38196) | DRSC08727 | 3 | –
nSyb (GeneID 38196) | DRSC27077 | 6 | –
Kat60 (GeneID 53566) | DRSC12378 | 6 | –
Odc2 (GeneID 35767) | DRSC07483 | 5 | –
Odc2 (GeneID 35767) | DRSC26384 | 4 | –
Qsox4 (GeneID 318720) | DRSC14224 | 10 | –
raskol (GeneID 32754) | DRSC19202 | 21 | –
raskol (GeneID 32754) | DRSC19731 | 20 | –
raskol (GeneID 32754) | DRSC19964 | 3 | –
raskol (GeneID 32754) | DRSC21788 | 4 | –
Nop60B (GeneID 37873) | DRSC04627 | 3 | –
CR30374 (GeneID 10178922) | DRSC05080 | 8 | –
Crg-1 (GeneID 43900) | DRSC22882 | 1 | –
Crg-1 (GeneID 43900) | DRSC29136 | 9 | –
CG30116 (GeneID 37126) | DRSC05935 | 4 | –
CG30116 (GeneID 37126) | DRSC06685 | 8 | –
Dlish (GeneID 37014) | DRSC06016 | 10 | –
Atg17 (GeneID 40700) | DRSC12221 | 4 | –
Mnn1 (GeneID 33991) | DRSC03368 | 11 | –
Akh (GeneID 38495) | DRSC08138 | 5 | –
Akh (GeneID 38495) | DRSC28433 | 4 | –
velo (GeneID 38748) | DRSC08841 | 5 | –
velo (GeneID 38748) | DRSC09698 | 9 | –
velo (GeneID 38748) | DRSC27497 | 19 | –
lncRNA:CR32658 (GeneID 3772624) | DRSC19402 | 8 | –
lncRNA:CR32658 (GeneID 3772624) | DRSC26860 | 5 | –
Doa (GeneID 43415) | DRSC13892 | 13 | –
Doa (GeneID 43415) | DRSC13893 | 21 | –
Doa (GeneID 43415) | DRSC13896 | 6 | –
Doa (GeneID 43415) | DRSC13897 | 7 | –
Doa (GeneID 43415) | DRSC16650 | 5 | –
Doa (GeneID 43415) | DRSC26631 | 11 | –
Desat2 (GeneID 41536) | DRSC15919 | 6 | –
Desat2 (GeneID 41536) | DRSC25894 | 8 | –
Jhbp5 (GeneID 41949) | DRSC14240 | 5 | –
Dlip3 (GeneID 53579) | DRSC07401 | 5 | –
Dlip3 (GeneID 53579) | DRSC29615 | 6 | –
SPARC (GeneID 43230) | DRSC14123 | 11 | –
SPARC (GeneID 43230) | DRSC26381 | 4 | –
ND-B18 (GeneID 32434) | DRSC19947 | 9 | –
ND-B18 (GeneID 32434) | DRSC27676 | 3 | –
CG9997 (GeneID 43395) | DRSC16591 | 13 | –
CG9997 (GeneID 43395) | DRSC29613 | 5 | –
CG3526 (GeneID 31277) | DRSC17240 | 62 | –
CG3526 (GeneID 31277) | DRSC18636 | 8 | –
CG3526 (GeneID 31277) | DRSC24423 | 9 | –
CG14435 (GeneID 31628) | DRSC23282 | 7 | –
CG32295 (GeneID 317962) | DRSC23259 | 9 | –
CG32235 (GeneID 251916) | DRSC23257 | 7 | –
CG3638 (GeneID 31071) | DRSC18533 | 9 | –
CG3638 (GeneID 31071) | DRSC25349 | 2 | –
CG34247 (GeneID 5740480) | DRSC09933 | 5 | –
CG42361 (GeneID 37936) | DRSC04391 | 6 | –
Rsph4a (GeneID 37831) | DRSC04338 | 7 | –
Rsph4a (GeneID 37831) | DRSC28287 | 8 | –

In a second layout: results already given.
| target gene | amplicon | mitotic cells, replicate 1 | mitotic cells, replicate 2 |
| --- | --- | --- | --- |
| Ak3 (GeneID 41318) | DRSC27968 | 4 | – |
| Ih (GeneID 36589) | DRSC07445 | 10 | – |
| Ih (GeneID 36589) | DRSC24809 | 8 | – |
| Gos28 (GeneID 248102) | DRSC16292 | 6 | – |
| Gos28 (GeneID 248102) | DRSC22859 | 11 | – |
| CG11350 (GeneID 38554) | DRSC08181 | 2 | 11 |
| CG11350 (GeneID 38554) | DRSC25083 | 4 | – |
| ssp2 (GeneID 39540) | DRSC11052 | 7 | – |
| ssp2 (GeneID 39540) | DRSC23906 | 7 | – |
| IFT57 (GeneID 33579) | DRSC00720 | 9 | – |
| Tmep (GeneID 38185) | DRSC08215 | 4 | – |
| Tmep (GeneID 38185) | DRSC26652 | 3 | – |
| nSyb (GeneID 38196) | DRSC08727 | 3 | – |
| nSyb (GeneID 38196) | DRSC27077 | 6 | – |
| Kat60 (GeneID 53566) | DRSC12378 | 6 | – |
| Odc2 (GeneID 35767) | DRSC07483 | 5 | – |
| Odc2 (GeneID 35767) | DRSC26384 | 4 | – |
